This is an account of results in publication PMC10954715.

Protein sequences, listed by entry. Tags and fused reporters are not part of them. Lines headed by an entry give the natural chain unless they say otherwise; changes in a name come on top. Residues count along the entry.
UniProt Q96LA8: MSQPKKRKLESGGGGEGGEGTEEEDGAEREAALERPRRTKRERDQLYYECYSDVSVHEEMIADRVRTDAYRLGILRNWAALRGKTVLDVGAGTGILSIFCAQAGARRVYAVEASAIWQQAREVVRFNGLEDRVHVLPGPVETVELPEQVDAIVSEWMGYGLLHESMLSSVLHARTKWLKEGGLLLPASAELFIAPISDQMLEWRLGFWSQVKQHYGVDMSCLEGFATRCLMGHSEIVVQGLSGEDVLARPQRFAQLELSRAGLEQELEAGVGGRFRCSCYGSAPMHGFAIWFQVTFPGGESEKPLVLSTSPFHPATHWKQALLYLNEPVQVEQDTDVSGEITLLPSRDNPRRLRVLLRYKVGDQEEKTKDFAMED
PPARγ1 (P37231, residues 29-505): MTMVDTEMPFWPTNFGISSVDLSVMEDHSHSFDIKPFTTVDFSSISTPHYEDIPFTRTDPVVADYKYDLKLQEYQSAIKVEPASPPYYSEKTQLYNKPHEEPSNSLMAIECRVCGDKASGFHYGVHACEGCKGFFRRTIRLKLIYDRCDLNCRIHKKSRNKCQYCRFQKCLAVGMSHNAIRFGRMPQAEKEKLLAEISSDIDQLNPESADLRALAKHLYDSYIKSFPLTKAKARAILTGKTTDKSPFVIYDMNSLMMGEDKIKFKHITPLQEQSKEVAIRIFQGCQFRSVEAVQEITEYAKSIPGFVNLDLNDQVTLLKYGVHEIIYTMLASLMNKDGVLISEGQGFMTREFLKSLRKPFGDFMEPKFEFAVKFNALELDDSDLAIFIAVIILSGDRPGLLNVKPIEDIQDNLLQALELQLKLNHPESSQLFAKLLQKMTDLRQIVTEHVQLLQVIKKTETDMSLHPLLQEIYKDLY

No constants are given. Whether binding was seen depends on the method and setting. In cells and extracts the contact can be indirect. Some binding calls cover weakened binding; strength is not graded here.

One assay addresses Flag-PRMT6 (UniProt Q96LA8). As to the kind of experiment: co-IP; HEK293T cells transfected with Flag-PRMT6 and PPARγ1 or PPARγ2; 600 µg whole cell lysate (50 mM Tris-HCl pH 7.5, 150 mM NaCl, 1% IGEPAL, 1 mM EDTA; Benzonase treated) with anti-DYKDDDDK magnetic agarose beads, 2 h, 4 °C; blot with anti-PPARγ antibody.
For a further assay, the target named is GST-PRMT6 (UniProt Q96LA8). As to the kind of experiment: pull-down; GST-PRMT6 on beads incubated with 10 µl in vitro translated 35S-labelled PPARγ2, 3 h, 4 °C; SDS-PAGE and phosphorimaging; only the target purified.

Take PPARγ1 (from UniProt P37231-2 1-477): the binding entry with Flag-PRMT6 is “binds”. Take PPARγ2 (from UniProt P37231-1 1-505): in the assay with Flag-PRMT6, the binding entry is recorded as “binds”.

As for “in vitro translated 35S-labelled PPARγ2 (from UniProt P37231-1 1-505)”, in the assay with GST-PRMT6, the binding result was “binds”.
